Measurements from article PMC9135631 (2022).
Results are given in words; binding and its absence hold for the method and conditions named. Binding calls can cover weak binding; strength is not graded here.

What was measured:
Test in all cases: cell aggregation assay; two HEK293 populations (receptor + EGFP; ligand + DsRed) mixed under gentle agitation at room temperature in DMEM, 10% FBS, 50 mM Hepes-NaOH pH 7.4, 10 mM CaCl2, 10 mM MgCl2; aggregates imaged by epifluorescence up to 180 min; aggregation index
[1] = molecular target: Latrophilin-3 ADHD-related variant A247S (Lphn3^A247S) (human)
[2] = molecular target: Latrophilin-3 ADHD-related variant T783M (Lphn3^T783M) (human)
[3] = molecular target: Latrophilin-3 ADHD-related variant R465S (Lphn3^R465S) (human)
[4] = molecular target: Latrophilin-3 wild type (Lphn3^HA,Flag) (human)
[5] = molecular target: Latrophilin-3 ADHD-related variant D615N (Lphn3^D615N) (human)

Measured: binding

B1: FLRT3, transmembrane version (ligand, UniProt Q9NZU0 29-649)
chain: KSCPSVCRCDAGFIYCNDRFLTSIPTGIPEDATTLYLQNNQINNAGIPSDLKNLLKVERIYLYHNSLDEFPTNLPKYVKELHLQENNIRTITYDSLSKIPYLEELHLDDNSVSAVSIEEGAFRDSNYLRLLFLSRNHLSTIPWGLPRTIEELRLDDNRISTISSPSLQGLTSLKRLVLDGNLLNNHGLGDKVFFNLVNLTELSLVRNSLTAAPVNLPGTNLRKLYLQDNHINRVPPNAFSYLRQLYRLDMSNNNLSNLPQGIFDDLDNITQLILRNNPWYCGCKMKWVRDWLQSLPVKVNVRGLMCQAPEKVRGMAIKDLNAELFDCKDSGIVSTIQITTAIPNTVYPAQGQWPAPVTKQPDIKNPKLTKDHQTTGSPSRKTITITVKSVTSDTIHISWKLALPMTALRLSWLKLGHSPAFGSITETIVTGERSEYLVTALEPDSPYKVCMVPMETSNLYLFDETPVCIETETAPLRMYNPTTTLNREQEKEPYKNPNLPLAAIIGGAVALVTIALLALVCWYVHRNGSLFSRNCAYSKGRRRKDDYAEAGTKKDNSILEIRETSFQMLPISNEPISKEEFVIHTIFPPNGMNLYKNNHSESSSNRSYRDSGIPDSDHSHS
binds: all assays above
